This note sets out measurements from PubChem BioAssay AID1487 (National Center for Advancing Translational Sciences (NCATS), 2009).

The nature of the assay: qHTS Assay for Modulators of Lamin A Splicing. The following applies: HeLa LMNA splicing GFP/RFP minigene ratio, 48 h. The essentials:
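S3 HeLa cells stably expressing lamin A-EGFP splicing minigene plus DsRed2, 600 cells/well, 48 h compound exposure at 37C. Laser-scanning cytometry; analysed as GFP (500-530 nm)/RFP (575-640 nm) total intensity ratio; 0.5% DMSO vehicle.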

The mark [1] stands for this setting: measured here: GFP splicing reporter channel.
Setting [2] is: measured here: RFP viability control channel.

Several values for one entry are separate records, joined by “and”; a condition that tells them apart may be missing. Equal entries are not always repeated. The list shows a part of the results. Further columns of the screen follow, without active or inactive calls. The list favours compounds with an active or inconclusive main result. The note in brackets gives the kind of curve behind each potency; many fits are weak.

Regarding `Cc1cc(F)ccc1NC(=O)CCS(=O)(=O)c1ccc2c(c1)NC(=O)CO2`, under setting [1], the AC50 is 1.26 µM [rising, partial curve].

With `COC(=O)c1cn(NC(=O)c2ccc([N+](=O)[O-])cc2Cl)c(=O)c2ccccc12`, under setting [1], the AC50 is 0.447 µM [falling, full curve, poor fit].

As for `COc1ccc(COc2ccccc2C(=O)NCc2ccccc2)cc1F`, under setting [2], the half-maximal activity concentration (AC50) was 28.2 µM [rising, single point].

As to `CN1CCN(c2ccnc(-c3ccoc3)n2)CC1`, the AC50 under setting [1] is 12.6 µM [falling, single point].

In the case of `COc1cc(NS(=O)(=O)c2ccc(C)cc2)ccc1-n1cnnn1`, the AC50 is, setting by setting: under setting [1], 14.1 µM [rising, partial curve]; under setting [2], 11.2 µM [rising, single point].

Consider `COc1cccc(CNC(=O)C2CCCN(S(=O)(=O)c3ccc4c(ccn4C)c3)C2)c1` (stereo not drawn), for which the AC50 under setting [1] is 0.0891 µM [falling, full curve, poor fit].

Take `COCCOC(=O)C1=C(N)OC2=C(C(=O)CCC2)C1c1cccnc1` (stereo not drawn): the AC50 under setting [1] was 0.02 µM [rising, full curve, poor fit].

As to `O=C(Nc1ccc(F)cc1)c1ccc(COc2ccccc2)cc1`, under setting [2], the AC50 was 0.0631 µM [rising, full curve].

Regarding `C=C1c2c(Cl)ccc(O)c2C(O)=C2C(=O)[C@@]3(O)C(O)=C(C(N)=O)C(=O)[C@@H](N(C)C)[C@@H]3[C@@H](O)[C@H]12`, the concentration at half-maximal activity (AC50) under setting [2] is 0.00447 µM [rising, full curve, poor fit].

Consider `Nc1ccn([C@@H]2O[C@H](CO)[C@@H](O)C2O)c(=O)n1` (stereo partly drawn), for which the AC50 under setting [1] is 0.891 µM [falling, full curve, poor fit].

In the case of `Cc1cc(C)c(NC(=S)NC(=O)c2c(Cl)c(C)nn2C)c([N+](=O)[O-])c1`, the AC50 under setting [1] is 25.1 µM [rising, single point] and the AC50 under setting [2] is 31.6 µM [rising, single point].

With `Cc1noc(C)c1CSc1nnc2ccccn12`, the half-maximal activity concentration (AC50) under setting [2] was 35.5 µM [rising, single point].

As to `COc1ccc(N2CCN(C(c3cc4cc(C)ccc4[nH]c3=O)c3nnnn3Cc3ccccc3)CC2)cc1` (stereo not drawn), the AC50 under setting [1] is 12.6 µM [rising, partial curve, poor fit].

On to `O=c1cnc2cnc(Nc3ccccc3)nc2n1Cc1ccc(F)cc1`, for which the half-maximal activity concentration (AC50) under setting [2] is 20 µM [falling, partial curve, poor fit].

With `Cc1ccc2nc(NC(=S)NC(=O)c3ccc(OC(C)C)cc3)sc2c1`, under setting [2], the AC50 is 35.5 µM [falling, single point].

On to `COc1ccc(N2CCN(C(=O)CCc3ccc(S(=O)(=O)NC(C)C)cc3)CC2)cc1`, for which the AC50 under setting [1] is 22.4 µM [rising, single point] and the AC50 under setting [2] is 22.4 µM [rising, single point].

Take `COC(=O)c1sccc1NC(=O)CN1CCN(c2ccc(F)cc2)CC1`: the AC50 under setting [2] was 17.8 µM [rising, partial curve].

As for `CCOC(=O)C1=C(C)N(CCO)C(=O)NC1c1ccccc1` (stereo not drawn), the AC50 is 0.0112 µM [rising, full curve, poor fit] under setting [1] and 0.00891 µM [rising, full curve] under setting [2].

Regarding `CCOC(=O)Cc1cc(=O)n2[nH]cc(-c3ccc(Cl)cc3)c2n1`, the AC50 under setting [2] is 0.00447 µM [rising, full curve, poor fit].

On to `CCCNC(=O)c1nn2cc(Br)cnc2c1Cl`, for which, under setting [1], the AC50 was 1.41 µM [rising, full curve, poor fit].

As for `N#C/C(=C\c1ccc(-c2cccc([N+](=O)[O-])c2)o1)C(=O)NCCN1CCOCC1`, the AC50 under setting [1] is 20 µM [falling, partial curve, poor fit].

Consider `CCOC(=O)C1CCCN(c2ncnc3c2cnn3-c2ccc(C)c(Cl)c2)C1` (stereo not drawn), for which, under setting [1], the AC50 was 35.5 µM [falling, partial curve, poor fit].

For the compound `Nc1sc(-c2ccccc2)c(Cc2ccccc2)c1C(=O)O`, the AC50 under setting [2] is 0.447 µM [rising, single point].

Turning to `O=C(CCCCCn1c(SCC(=O)c2ccccc2)nc2ccccc2c1=O)NCc1ccco1`, under setting [2], the concentration at half-maximal activity (AC50) was 14.1 µM [rising, single point].

Regarding `O=C(O)/C=C\c1ccccc1Oc1cccc(Cl)c1`, the AC50 is 14.1 µM [falling, single point] under setting [1] and 11.2 µM [falling, partial curve, poor fit] under setting [2].

As to `Clc1ccc(CCNc2ncnc3c2c(-c2ccccc2)cn3-c2ccccc2)cc1`, the AC50 is, setting by setting: under setting [1], 0.794 µM [falling, full curve, poor fit]; under setting [2], 0.0631 µM [falling, full curve, poor fit].

In the case of `CCN(CC)c1ncnc2c1sc1nc(C)cc(C)c12`, the AC50 under setting [2] was 14.1 µM [falling, single point].

Consider `CCN(CC)C(=S)SSC(=S)N(CC)CC`, for which the AC50 is 112 nM [falling, full curve] and 63.1 nM [falling, full curve, poor fit] and 35.5 nM [falling, full curve] under setting [1]; 89.1 nM [falling, full curve] and 2.82 µM [falling, partial curve] and 200 nM [falling, full curve] under setting [2].

`COc1ccccc1C(=O)Nc1nc2ccc(S(=O)(=O)N3CCCC3)cc2s1`: the AC50 under setting [1] was 0.562 µM [rising, full curve, poor fit].

Take `Cc1nc2ccccc2c2oc(C(=O)N3CCN(C4CCCCC4)CC3)cc12`: under setting [2], the AC50 was 11.2 µM [rising, partial curve].

With `N/C(=N/OCc1cccc([N+](=O)[O-])c1)c1nonc1N`, the half-maximal activity concentration (AC50) runs as follows: under setting [1], 35.5 µM [rising, single point]; under setting [2], 35.5 µM [rising, single point].

In the case of `Clc1ccc(COn2ccnc2)cc1Cl`, the AC50 under setting [1] was 0.316 µM [rising, full curve, poor fit].

With `O=C(NCc1ccccc1Cl)C(=O)NCC(c1ccco1)N1CCOCC1` (stereo not drawn), the AC50 is, setting by setting: under setting [1], 0.0316 µM [falling, full curve, poor fit]; under setting [2], 0.0316 µM [falling, full curve].

Regarding `CC(C)(C)c1ccc(NC(=O)COC(=O)C2(C)CC2(Cl)Cl)cc1` (stereo not drawn), the AC50 was 5.62 µM [rising, full curve, poor fit] under setting [1] and 12.6 µM [rising, single point] under setting [2].

With `Cc1ccc(CSc2nnc(NC(=O)C3COc4ccccc4O3)s2)cc1` (stereo not drawn), the AC50 was 35.5 µM [rising, single point] under setting [1] and 20 µM [rising, single point] under setting [2].

As to `C/C(=N\NC(=S)Nc1c(C)cccc1C)c1ccc(OC(F)F)cc1`, under setting [1], the AC50 was 11.2 µM [rising, partial curve].

Regarding `Cc1ccc(NC(=O)Nc2ccccc2)cc1[N+](=O)[O-]`, under setting [2], the AC50 was 20 µM [rising, single point].

As to `COc1ccc(NC(=O)c2ccc(C)cc2)c(OC)c1`, the AC50 under setting [2] is 22.4 µM [rising, single point].

`COc1cc2c(cc1OC)CN(CC(=O)NC(=O)NC(C)(C)C)CC2`: under setting [1], the AC50 was 3.16 µM [rising, full curve, poor fit].

On to `COC(=O)c1ccccc1-c1ccc(/C=N/NC(=O)c2cc3ccccc3o2)o1`, for which, under setting [2], the AC50 was 17.8 µM [rising, single point].

With `O=C(OC(C(=O)Nc1ccc(Cl)c(C(F)(F)F)c1)c1ccccc1)C1=COCCO1` (stereo not drawn), the AC50 under setting [1] is 12.6 µM [rising, single point] and the AC50 under setting [2] is 25.1 µM [rising, single point].

As for `Cc1nn(C)c(C)c1NC(=O)CCCSc1nc(-c2ccco2)cc(C(F)(F)F)n1`, the AC50 under setting [1] is 35.5 µM [rising, single point] and the AC50 under setting [2] was 35.5 µM [rising, partial curve].

Regarding `COc1ccc(Nc2nnc(SC(C(=O)Nc3ccc(OC)c(Cl)c3)c3ccccc3)s2)cc1` (stereo not drawn), the half-maximal activity concentration (AC50) was 8.91 µM [rising, partial curve] under setting [1] and 14.1 µM [rising, single point] under setting [2].

Turning to `Cc1ccc2ccc(C(Nc3ccccn3)c3ccccc3)c(O)c2n1` (stereo not drawn), the AC50 under setting [2] is 15.8 µM [rising, single point].

In the case of `COc1ccc(/C=C/C(=O)C2C(=O)C=C(C)OC2=O)cc1O` (stereo not drawn), the AC50 under setting [2] is 10 µM [rising, partial curve].

Take `CC(C)Cc1nn2c(=O)cc(COC(=O)c3cccc(NC(=O)CCc4ccccc4)c3)nc2s1`: the AC50 under setting [1] is 11.2 µM [falling, partial curve] and the AC50 under setting [2] was 7.94 µM [falling, partial curve].

`N#C/C(=C\c1ccc(N2CCOCC2)o1)c1ccccc1`: the AC50 under setting [1] was 22.4 µM [falling, single point] and the AC50 under setting [2] is 35.5 µM [falling, single point].

`COc1ccccc1/C=C/C=N/n1c(-c2ccncc2)n[nH]c1=S`: the AC50 under setting [2] is 11.2 µM [rising, partial curve].

`O=C(Nc1nccs1)c1cc(-c2ccccc2)nc2ccccc12`: the AC50 is 11.2 µM [rising, partial curve, poor fit] under setting [1] and 35.5 µM [rising, single point] under setting [2].

Turning to `Cc1ccc(NNC(=S)Nc2ccc(C(C)C)cc2)c(C)c1`, the AC50 under setting [2] is 12.6 µM [rising, single point].

Take `C/C(=N/NC(=O)c1ccoc1C)c1cccc(NC(=O)C2CC2)c1`: the AC50 under setting [1] was 0.224 µM [rising, full curve, poor fit] and the AC50 under setting [2] was 0.251 µM [rising, full curve].

Regarding `O=C(CCNS(=O)(=O)c1ccc(Cl)cc1)N1CCN(Cc2ccccc2)CC1`, under setting [2], the AC50 was 35.5 µM [rising, single point].

In the case of `O=C(Cn1nc(-c2ccccc2F)ccc1=O)Nc1ccc(S(=O)(=O)N2CCCCCC2)cc1`, the AC50 under setting [2] is 20 µM [rising, single point].

Regarding `OCC1(Cc2cccc(F)c2)CCN(Cc2ccc3cccc(F)c3n2)CC1`, the AC50 reads like this: under setting [1], 0.00891 µM [falling, full curve, poor fit]; under setting [2], 0.0708 µM [falling, full curve, poor fit].
